Laboratory results: patent US20040053847A1, “Diastereomeric peptitdes and pharmaceutical compositions comprising them” (priority 2000, published 2004)
Part of at least one peptide drawing is inferred or uncertain, most often the ends. Square brackets hold non-standard residues; d marks the D form. Peptide text beside a SMILES is read from it.

Tests used:
[1] = tested on: methicilin-resistant Staphylococcus aureus (MRSA) ATCC 700698; assay type: cell-based
Description: (§1) The antibacterial activity of the peptides was examined in sterile 96-well plates (Nunc F96 microtiter plates) in a final volume of 100 μl as follows: Aliquots (50 μl) of a suspension containing bacteria at concentration of 1×10^6 Colony-Forming Units (CFU)/ml in culture LB (Lauria broth) medium were added to 50 μl of water containing the peptide in serial 2-fold dilutions in water. Inhibition of growth was determined by measuring the absorbance at 600 nm with a Microplate autoreader E1309 (Bio-tek Instruments), after an incubation time of 18-20 h at 37° C. Antibacterial activities were expressed as the minimal inhibitory concentration (MIC), the concentration at which 100% inhibition of growth was observed after 18-20 h of incubation. The bacteria used were: Escherichia coli ATCC 25922, Acinetobacter baumannii ATCC 19606, Pseudomonas aeruginosa ATCC 27853, Staphylococcus aureus ATCC 6538P, Enterococcus faecalis ATCC 29212, Enterobacter cloacae ATCC 49141. The antibacterial activity of peptides 2 and 6 was also examined against resistant bacteria: methicilin-resistant Staphylococcus aureus ([…]) ATCC 700698 and vancomycin-resistant Enterococcus faecium (VRE) ATCC 700221.

[2] = tested on: vancomycin-resistant Enterococcus faecium (VRE) ATCC 700221; assay type: cell-based
Description: as §1

[3] = tested on: 3LL D-122 Lewis lung carcinoma; experiment: 3LL D-122 Lewis lung carcinoma metastasis model; assay type: in vivo, C57 black male mice; settings: 5 mg/kg i.v., 5 treatments in 21 days, day 28
[4] = tested on: human breast MCF-7 cells; experiment: Xenograft model of human breast MCF-7 cells in SCID mice; assay type: in vivo; settings: peptide 9 3 mg/kg IV twice a week, 6 doses; mitomycin 2 mg/kg IP twice a week, 5 doses
Description: The in-vivo anticancer assay was conducted on SCID (Severe Combined Immune Deficiency) mice using the xenograft model of human breast MCF-7 cells. Groups of 6 SCID female mice weighing 18-20 g (6-week old), bred in an animal isolator (IVC racks under specific pathogen-free (SPF) conditions at 24±1° C., were used. Viable human breast carcinoma MCF-7 cells (ATCC HTB-22−1×10^7 cells in 0.2 ml of PBS) were injected subcutaneously (s.c.) into the dorsal side of SCID mice. 50 μg/mouse of estradiol benzoate was injected s.c. weekly as a supplement for 4 weeks. […] Mitomycin at a dose of 2 mg/kg was administered intraperitoneally (IP) twice a week for 5 doses. The tumor size, body weight and the signs of overt animal toxicity after each treatment were recorded and observed. At the end of the experiment, hematological analysis was carried out.

Row | Structure (SMILES) | Activity against resistant bacteria MRSA [1] | Activity against resistant bacteria VRE [2] | Decrease of metastatic load compared to the untreated group [3] [%] | Lungs weight [3] [mg] | Effect on tumor growth (FIG. 1) [4]
1 | CC(C)C[C@H](NC(=O)[C@H](CCCCN)NC(=O)[C@H](CC(C)C)NC(=O)[C@@H](CC(C)C)NC(=O)[C@H](CC(C)C)NC(=O)[C@@H](N)CCCCN)C(=O)N[C@@H](CC(C)C)C(=O)N[C@H](CCCCN)C(=O)N[C@H](CCCCN)C(=O)N[C@@H](CC(C)C)C(=O)N[C@@H](CC(C)C)C(=O)N[C@@H](CCCCN)C(=O)N[C@H](CC(C)C)C(=O)N[C@@H](CC(C)C)C(=O)N[C@@H](CCCCN)C(N)=O [Peptide 2, [D]-L^3,13,K^8,9-K6L9] (H-KL[dL]LKLL[dK][dK]LLK[dL]LK-NH2) | highly active | highly active | – | – | –
2 | CC(C)C[C@H](NC(=O)[C@H](CCCNC(=N)N)NC(=O)[C@@H](CC(C)C)NC(=O)[C@H](CC(C)C)NC(=O)[C@@H](N)CCCCN)C(=O)N[C@@H](CC(C)C)C(=O)N[C@H](CCCCN)C(=O)N[C@H](CCCCN)C(=O)N[C@@H](CC(C)C)C(=O)N[C@H](CC(C)C)C(=O)N[C@@H](CCCNC(=N)N)C(=O)N[C@@H](CC(C)C)C(=O)N[C@H](CC(C)C)C(=O)N[C@@H](CC(C)C)C(=O)N[C@@H](CCCCN)C(N)=O [Peptide 9, [D]-L^3,10,13,K^7,8-K4R2L9] (H-KL[dL]RLL[dK][dK]L[dL]RL[dL]LK-NH2) | – | – | 80 | 282 ± 28 | inhibitory effect upon the tumor growth
